Data from patent US20170152308A1.
Where a chain is given by its changes, count along the chain named. No constants are given. Whether binding was seen depends on the method and setting. Some entries that bind do so weakly or less than the wild type.

Sequences of proteins named here, by UniProt entry; tags and fusion partners are left off.
UniProt Q13148: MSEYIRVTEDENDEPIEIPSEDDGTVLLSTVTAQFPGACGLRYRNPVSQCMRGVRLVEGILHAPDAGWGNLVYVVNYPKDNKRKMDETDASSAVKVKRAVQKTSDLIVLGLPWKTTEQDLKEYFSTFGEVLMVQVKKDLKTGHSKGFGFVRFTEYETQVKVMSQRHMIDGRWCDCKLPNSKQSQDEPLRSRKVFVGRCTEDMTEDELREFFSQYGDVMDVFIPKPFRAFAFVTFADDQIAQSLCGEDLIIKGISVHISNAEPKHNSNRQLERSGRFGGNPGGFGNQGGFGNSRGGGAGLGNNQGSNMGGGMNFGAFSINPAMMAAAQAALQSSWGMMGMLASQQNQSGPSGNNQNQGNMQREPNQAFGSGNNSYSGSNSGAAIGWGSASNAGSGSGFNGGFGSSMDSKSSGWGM

B1: NI-205.8A2 (antibody, human IgG1, V domains shown)
VH: QVQLVESGGGVVQPGKSLRLSCAASGFTFRDHGMHWVRQAPGKGLEWVAVIWLDGSSRFYADSVEGRFTISRDNSKNTLYLQLTSLRAEDTAIYYCARDRVASEGTAFDVWGQGTMVTVSS
VL: EIVLTQSPATLSLSPGERATLSCWASQNVNHYLVWYQQRPGQAPRLLLYDTSVRAAGIPARFIGSGSGTHFTLTISSLEPEDSAVYYCQHRSDWTFGQGTKVEIK
B2: NI-205.15F12 (antibody, human IgG1, V domains shown)
VH: QVQLVQSGTAVKKPGASVKVSCKASGFSFNGYYMHWVRQAPGQGLEWMGVINPNGGSTNYAQKFKGRITMSADTPARSVSMELGSLRSDDTAMYYCARLPVNIEVLDLWGQGTLVTVSS
VL: DIVMTQSPDSLAVSLGERATINCRSSQTVLFSSNDKNYLAWYQQKPGQPPKLLIYWASVRASGVPDRFSGSGSGTDFSLTINGLQAEDVAVYYCQQSSTAPLTFGGGTKVEIK
B3: NI-205.113C4 (antibody, human IgG1, V domains shown)
VH: QVQLVQSGAEVKKPGASVKVSCKASGYTFTNYYMHWVRQAPGQGLEWMGIINPSGGRTSYAQKFQGRASMTRDTSTSTVYMEVISLRSEDTAVYYCARQRPSGYSGYGPSESYGNPTDDAFDVWGQGTTVTVSS
VL: SYVLTQPPSVSVAPGQTARITCGGNNIGSRGVHWYQQRPGQAPVLVVYDDSDRPSGIPERFSGSNSGDTATLTISRVEVGDEADYYCQVWDNSSDHLVVFGGGTKLTVL
B4: NI-205.25F3 (antibody, human IgG1, V domains shown)
VH: QVQLVESGGGVVQPGRSLRLSCAASGFTFSNYVMYWVRQAPGKGLEWVAFISYDGSNKYYPDSVKGRFTISRDNSMNTLYLQMDSLRAEDTAVYYCARDTYQYDSSTYYPYFYYYGMDVWGQGTTVTVSS
VL: QSALTQPASVSGSPGQSITISCIGTSSDVGGYNYVSWYQQHPGKAPKLMIYEVSNRPSGVSSRFSGSKSGNTASLTISGLQSEDEADYYCSSFASSSTSVTFGGGTKLTVL
B5: NI-205.87E7 (antibody, human IgG1, V domains shown)
VH: EVQLLESGGGLVQPGGSLRLSCAASGFTFSSYAMSWVRQAPGKGLEWVSAISGGGDRTYSADSVKGRFTISRDNSKNTLYLQINSLRVEDTAVYYCAQGGGGEMTAVTMDGTYYGMDVWGQGTTVTVSS
VL: QSALTQPRSVSGSPGQSITISCTGTSSNVGTYKFVSWYQQHPGKAPKLMIYDVTKRPSGVPDRFSGSKSGNTASLTISGLQAEDEADYYCCSYAGSYTYVFGSGTKVTVL
B6: NI-205.21G1 (antibody, human IgG1, V domains shown)
VH: QVQLVESGGGVVQPGMSLRLSCAASGFSFSSHGMHWVRQTPGKGLEWLAVISYDASNKSYADSVKGRFTISRDNSKKTLYLQMDSLRVEDTALYYCANAFSSSASGGYWGQGTLVTVSS
VL: DVVMTQSPLSLPVTLGQPASISCRSSQSLVHSDGVTYLNWFQQRPGQSPRRLIYKVSNRDSGVPDRFSGSGSGTDFTLEISRVEAEDVGIYYCMQGTHWPPWTFGQGTKVEIK
B7: NI-205.51C1 (antibody, human IgG1, V domains shown)
VH: EVQLVESGGGLVQPGGSLRISCTTSGFIFSDYWMHWVRQAPGKGLTWVSRINLDGSDTIYADSVKGRFTISRDNDKNTLYLQMNSLRVEDTAIYYCARSRKSVWGQGTMVTVSS
VL: QSALTQPASVSGSPGQSITISCTGSNTDVGAYDYVSWSQQLPGKAPKFVIFDVDVRPSGISDRFSGSKSGNTASLTISGLQAEDEADYYCSSYTKSGTLVFGGGTKVTVV
B8: NI-205.3F10 (antibody, human IgG1, V domains shown)
VH: EVQLLESGGDLVQPGGSLRLSCAASGFTFSSQAMSWVRQAPGKGLEWVSALSRTGDYTWYADSVRGRFTVSRDDSKNIFYLEMNSLRAEDTAVYYCAKNYYSSFGYNWAAFHIWGQGTMVTVSS
VL: EIVLTQSPGTLSLSPGERATLSCRASQDVNNNYLAWYQQKPGQAPRLLIYGASRRATGVPDRFSGRGSGTDFTLTINRLEPEDFAMYFCQQYGGSPPYTFGQGTKLEIK
B9: NI-205.21G2 (antibody, human IgG1, V domains shown)
VH: QVQLVQSGAEVKKPGASVKVSCKTSGYSFTSYTLHWVRQAPGHRPEWMGWINAAFINTKYSQKFQGRITLTRDTSANIAYLELRSLTTEDTAVYYCARRASGSNGLDVWGQGTTVTVSS
VL: DIQMTQSPSSLSASVGDRITITCQASRDITNYLNWYQQKPGKAPKLLIYDASYLETGVPSTFSGSGSGTHFTLTISSLQPDDFATYYCQQYDSVPLTFGGGTKVEIK
B10: NI-205.44B2 (antibody, human IgG1, V domains shown)
VH: QVQLQESGPGVVKPSQTLSLTCTVSGVSVGSGDYYWSWIRHHPGKGLEWIGYISFFGSSNYNPSLKGRVSMSVDTSNNQFSLNLKSVTAADTAVYFCATGNAYSFWGQGTMVTVSS
VL: QSALTQPASVSGSPGQSITISCTGTSSDIGTHNLVSWYQQHPGKAPKLIIYEIFERPSGISSRFTGSKSGNTASLTISGLQAEDEADYFCCAYSVTVIFGGGTKLTVL
B11: NI-205.10H7 (antibody, human IgG1, V domains shown)
VH: QVQLVESGGGVVQPGRSLRLSCAASGFTFSNYAMHWVRQAPGKGLEWVAVIWYDGSKKYYGDSVKGRFTISRDNPKNTLYLQMNSLRVEDTAIYYCVPDAFDMWGQGTMVTVSS
VL: DIVMTQTPLSSPVTLGQPASISCRSSQSLVHTDGKTYLSWLHQRPGQPPRPLIYKMSKRFSGVPDRFSGSGAETEFTLKISRVEAEDVGIYYCLQLTQFPITFGQGTRLEIK
B12: NI-205.1A9 (antibody, human IgG1, V domains shown)
VH: QVQLVQSGSELKKPGASVKVSCKASGYTFTSYAMNWVRQAPGQGLEWMGWINTNTGNPTYAQGFTGRFVFSLDTSVSTAYLQISSLKAEDTAVYYCARDRIDGSSWSSWFDPWGQGTLVTVSS
VL: QSVLTQPPSVSGAPGQRVTISCTGSSSNIGAGYDVHWYQQLPGTAPKLLIYGNSNRPSGVPDRFSGSKSGTSASLAITGLQAEDEADYYCQSFDSSLSSSVFGGGTKLTVL
B13: NI-205.38H2 (antibody, human IgG1, V domains shown)
VH: EVQLVESGGDLVQPGGSLRLSCTASGFNLGDYWMHWVRQVPGKGLVWVSRISSDGASVSYADFVEGRFTISRGNARNTLFLELNSLRLDDTAVYYCAMGVVWGQGTLVTVSS
VL: SYELTQPPSVSVSPGQTATISCSGDALPKRYAYWYKQKSGQVPVLIIYEDNKRPSGIPARFSGSSSGTMATLTITGAQVDDEADYYCYSSDNSDTYSVFGGGTKLTVL
B14: NI-205.31C11 (antibody, human IgG1, V domains shown)
VH: QVQLVESGGGVVQPGRSLRLSCVASGFTFDNYGMHWVRQAPGKGLEWLAVISYGGDHQFYGDSVKDRFTISRDNSKNTAYLQMHSLRPDDTAVYYCATGVTPDFWGQGTLVTVSS
VL: B6 VL with V35N, N58H, E79K, I90V, M94L, W102F, V110L
B15: NI-205.29E11 (antibody, human IgG1, V domains shown)
VH: QVQLVQSGAEVKKPGASVKVSCKASGYIFTDYFIHWIRQAPGQGLEWMGWIKPKSGGTDYAEKFQGRVTLTRDTSITTVYMELSRLNSDDTAVYYCARLKYSVPDSDYWGQGTLVTVSS
VL: DVVMTQSPLSLPVTLGQSASISCRSSQGLVHSDGNTYLNWFHQRPGQSPRRLIYKVFNRDSGVSDRFSGSGSGSDFTLMISRVEAEDVGIYYCMQGTLWPLTFGQGTKVEIK
B16: NI-205.14H5 (antibody, human IgG1, V domains shown)
VH: EVQLLESGGGLVQPGGSLRLSCAASGFTFRNYAMAWVRQAPGKGLEWVSAIPARGDKTYYADSVRGRFTISRDISKSALYLQMNSLRVEDTAVYYCAKAHHLYNKNFDYWGQGTLVTVSS
VL: EIVLTQSPGTLSLSPGETVTLSCRASQSVSSSNLAWYQQKPGQAPRLLIYGASSRATGIPDRFSGRGSGTDFTLTISRLEPEDFAVYYCQHYGTFGQGTKVDIK
B17: NI-205.36D5 (antibody, human IgG1, V domains shown)
VH: QVQLVESGGGVVQPGRSLRLSCAASRFTFSSYGMHWVRQAPGKGLEWVALIYYDATQKYYADSVKGRFTISRDNSKNALYLQMTSLRADDTAVYYCARDLPYHYHRSASFAPADTWGQGTLVTVSS
VL: EIVLTQSPGTLSLSPGERATLSCRASQTISNNYLAWYQQKPGQAPRLLVYAASSRATGIPDRFYGSGSGADFTLTISRLEPEDFVVYYCQQYGSSPITFGQGTRLEIK
B18: NI-205.8F8 (antibody, human IgG1, V domains shown)
VH: EVQLLESGGGLVQPGGSLRLSCAASGYTFSYYAMSWVRQAPGKGLEWVSTIGDSGSTTHYADSVKGRFTISRDNSKSTLYLQMNSLRAEDTAVYYCAKGLGPVAAIGDYWGQGTLVTVSS
VL: QSVLTQPPSASGTPGQRVTISCSGSSSNIGSNNVYWYQQLPGTAPKLLVYRNNQRPSGVPDRVSGSKSGSSASLAISGLRSEDEADYYCAAWDDSLRGYVFGTGTKVTVL

These binders were tested against recombinant full-length His-tagged human TDP-43 (2-414) (human) (UniProt Q13148) (assay: Western blot).
B1 was tested, and the binding was “binds”.
In the case of B2, the binding is reported as “binds”.
B3 was tested, and the binding was “binds”.
With B4 the binding was “binds”.
B5 was tested, and the binding was “binds”.
B6 was tested, and the binding was “binds”.
With B7 the binding was “binds”.
B8 was tested, and the binding was “binds”.
B9 was tested, and the binding was “binds”.
In the case of B10, the binding is reported as “binds”.
With B11 the binding was “binds”.
With B12 the binding was “binds”.
For B13, the binding was “binds”.
In the case of B14, the binding is reported as “binds”.
B15 was tested, and the binding was “binds”.

Each binder was assayed against TDP-43 in human FTLD-U (and ALS) patient tissue sections (human) (UniProt Q13148) (assay: immunohistochemistry, patient tissue sections).
For B1, the binding was “binds”.
B8 was tested, and the binding was “binds”.
With B9 the binding was “binds”.

What follows are binders tested against TDP-43 in human FTLD-U (and ALS) patient tissue sections (human) (UniProt Q13148) (assay: immunohistochemistry, FTLD-U case hippocampus).
B1 was tested, and the binding was “binds”.
In the case of B2, the binding is reported as “binds”.
B8 was tested, and the binding was “binds”.
B9 was tested, and the binding was “binds”.
B11 was tested, and the binding was “binds”.
For B14, the binding was “binds”.
B16 was tested, and the binding was “binds”.
In the case of B17, the binding is reported as “binds”.
For B18, the binding was “binds”.

The binders below were run against recombinant full-length His-tagged human TDP-43 (2-414) (human) (UniProt Q13148) (assay: direct ELISA, coated antigen).
In the case of B1, the binding is reported as “binds”.
In the case of B2, the binding is reported as “binds”.
B3 was tested, and the binding was “binds”.
In the case of B4, the binding is reported as “binds”.
In the case of B5, the binding is reported as “binds”.
For B6, the binding was “binds”.
With B7 the binding was “binds”.
In the case of B8, the binding is reported as “binds”.
For B9, the binding was “binds”.
B10 was tested, and the binding was “binds”.
B11 was tested, and the binding was “binds”.
B12 was tested, and the binding was “binds”.
B13 was tested, and the binding was “binds”.
In the case of B14, the binding is reported as “binds”.
In the case of B15, the binding is reported as “binds”.

The binders below were run against recombinant full-length His-tagged human TDP-43 (2-414) (human) (UniProt Q13148) (assay: direct ELISA, coated recombinant full length TDP-43).
In the case of B1, the binding is reported as “binds”.
With B2 the binding was “binds”.
For B3, the binding was “binds”.
B4 was tested, and the binding was “binds”.
B5 was tested, and the binding was “binds”.
B8 was tested, and the binding was “binds”.
